This test deals with T1, GFP-tagged M-cadherin (human cDNA, expressed in C2C12 cells) (human) (UniProt P55291).
T1 sequence (looked up): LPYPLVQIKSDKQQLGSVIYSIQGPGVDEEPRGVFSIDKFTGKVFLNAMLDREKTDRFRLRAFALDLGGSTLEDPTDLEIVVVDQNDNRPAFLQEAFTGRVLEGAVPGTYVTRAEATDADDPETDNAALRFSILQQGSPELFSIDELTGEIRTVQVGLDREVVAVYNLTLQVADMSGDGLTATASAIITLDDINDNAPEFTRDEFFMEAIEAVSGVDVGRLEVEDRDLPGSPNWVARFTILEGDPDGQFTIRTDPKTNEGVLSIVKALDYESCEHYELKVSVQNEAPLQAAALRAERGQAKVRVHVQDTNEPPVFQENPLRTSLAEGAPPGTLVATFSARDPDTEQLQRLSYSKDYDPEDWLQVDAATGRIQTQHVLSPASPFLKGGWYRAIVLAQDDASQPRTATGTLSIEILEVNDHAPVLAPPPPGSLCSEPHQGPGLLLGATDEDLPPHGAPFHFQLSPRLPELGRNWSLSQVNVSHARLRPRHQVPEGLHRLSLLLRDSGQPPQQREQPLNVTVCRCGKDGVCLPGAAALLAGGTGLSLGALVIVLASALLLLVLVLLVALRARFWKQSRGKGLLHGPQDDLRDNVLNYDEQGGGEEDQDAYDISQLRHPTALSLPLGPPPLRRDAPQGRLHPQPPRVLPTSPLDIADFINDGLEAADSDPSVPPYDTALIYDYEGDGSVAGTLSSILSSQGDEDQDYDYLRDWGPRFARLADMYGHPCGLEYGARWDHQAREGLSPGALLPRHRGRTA
Put plainly: co-immunoprecipitation from lysate of C2C12 cells transfected with GFP-tagged human M-cadherin: IP with M-cadherin antibody, Western blot with anti-β-catenin antibody, with or without 1 µg/ml recombinant Slit3.

Sequences of proteins named here, by UniProt entry; tags and fusion partners are left off. Residues count along the entry.
UniProt Q02248, residues 2-781: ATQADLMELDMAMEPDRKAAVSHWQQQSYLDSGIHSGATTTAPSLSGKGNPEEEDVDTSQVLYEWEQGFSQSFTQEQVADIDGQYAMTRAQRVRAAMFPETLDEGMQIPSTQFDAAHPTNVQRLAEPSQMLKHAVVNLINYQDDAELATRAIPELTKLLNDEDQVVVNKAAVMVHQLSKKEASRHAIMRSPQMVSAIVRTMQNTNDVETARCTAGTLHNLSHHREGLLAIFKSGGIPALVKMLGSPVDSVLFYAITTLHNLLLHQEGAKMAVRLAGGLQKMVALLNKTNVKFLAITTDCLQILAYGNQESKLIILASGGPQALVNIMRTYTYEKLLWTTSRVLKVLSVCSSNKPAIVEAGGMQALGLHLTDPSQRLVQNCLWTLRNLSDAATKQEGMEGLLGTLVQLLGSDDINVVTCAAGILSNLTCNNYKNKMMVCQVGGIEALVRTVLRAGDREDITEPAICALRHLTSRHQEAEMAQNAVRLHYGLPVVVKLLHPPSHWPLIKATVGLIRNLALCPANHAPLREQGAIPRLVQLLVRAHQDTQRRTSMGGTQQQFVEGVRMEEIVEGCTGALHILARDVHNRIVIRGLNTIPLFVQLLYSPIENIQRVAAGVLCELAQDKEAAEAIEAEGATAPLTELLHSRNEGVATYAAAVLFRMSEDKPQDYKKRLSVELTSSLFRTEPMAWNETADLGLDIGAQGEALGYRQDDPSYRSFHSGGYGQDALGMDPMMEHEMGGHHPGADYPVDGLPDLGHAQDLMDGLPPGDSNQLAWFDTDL

No constants are given. Whether binding was seen depends on the method and setting. Binding seen in cells or lysates may run through a third protein. Some entries that bind do so weakly or less than the wild type. Sequences can lack the tags named with a protein.

As for β-catenin (from UniProt Q02248 2-781), the binding entry was “binds”.

For the origin of these results see patent US20190133173A1.
